PubChem BioAssay AID1259259 | Sanger Institute | 2017

- Aim: 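Kinase silencing that lowers colorectal cancer cell viability alone or with drugs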 (primary screen)
- Cells: SW1463 human colorectal cancer cells
- Knock-down reagent: siRNA pool against human genes
- Challenge: DMSO vehicle, or one anchor drug: BYL719 at 1 µM, cetuximab at 5 µg/ml, or trametinib at 10 nM
- Detection: 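Viability as fraction of control pool 2 (non-targeting), replicate mean; knock-down robust z-score without any drug; synergy score averaged for each anchor drug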
- Scale: robust z-score, knock-down alone: higher = more viable cells after knock-down; viability, knock-down alone: higher = more viable cells; synergy score with BYL719 and synergy score with cetuximab and synergy score with trametinib: higher = stronger synergy (synthetic lethal) with drug
- Active means: 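Knock-down called essential when its robust z-score without drug falls below -3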
- Calls: active = essential: viability loss from knock-down alone; inactive = no change from knock-down alone
In all, the deposit lists 794 reagents; below is a random part of them. 9 of all reagents (1.1%) count as active. 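Calls rest on knock-down alone, not drug synergy; viability values seem capped at 1.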 No sequences are given here. Not given: the amount of reagent, the time to read-out.

Target gene | robust z-score, knock-down alone | viability, knock-down alone (fraction of control) | synergy score with BYL719 | synergy score with cetuximab | synergy score with trametinib | activity call
PRKD1 | 0.452 | 0.957 | 0.0706 | -0.00888 | -0.0053 | inactive
SIK2 | -0.674 | 0.884 | -0.057 | 0.0978 | -0.0316 | inactive
MVK | -0.291 | 0.909 | 0.0245 | -0.116 | 0.0967 | inactive
MYO3A | 0.638 | 0.969 | 0.137 | 0.0593 | 0.215 | inactive
CDKL3 | -0.73 | 0.881 | 0.0726 | -0.0278 | 0.142 | inactive
CDK10 | 0.951 | 0.989 | 0.0484 | -0.0382 | 0.233 | inactive
IGF2R | 1.13 | 1 | 0 | -0.0272 | -0.0062 | inactive
BUB1 | -0.523 | 0.894 | 0.000237 | 0.114 | -0.135 | inactive
NLK | -0.449 | 0.899 | -0.101 | -0.056 | -0.0924 | inactive
MAPK6 | -0.419 | 0.901 | 0.0196 | -0.00939 | 0.0756 | inactive
CTCF | 1.13 | 1 | 0.112 | 0.0308 | 0.142 | inactive
PFKL | 1.13 | 1 | 0 | 0.121 | 0.0253 | inactive
RPS6KB1 | 0.0497 | 0.931 | -0.0665 | -0.0358 | 0.17 | inactive
VRK1 | -0.511 | 0.895 | -0.0129 | 0.0683 | 0.0485 | inactive
ELP1 | -0.383 | 0.903 | -0.0969 | -0.0134 | 0.133 | inactive
NTRK3 | -0.137 | 0.919 | -0.0812 | -0.0482 | -0.111 | inactive
MINK1 | 0.962 | 0.989 | 0.0165 | 0.316 | -0.0428 | inactive
NEK11 | -0.829 | 0.874 | 0.0463 | 0.101 | -0.0103 | inactive
MPP1 | 0.857 | 0.983 | -0.0173 | 0.202 | -0.0257 | inactive
SRMS | 0.969 | 0.99 | 0.211 | 0.0726 | 0.171 | inactive

As entered above:
Under “synergy score with trametinib”, MPP1 reads -0.0257
For “synergy score with trametinib”, BUB1 shows -0.135
Under “robust z-score, knock-down alone”, CDKL3 shows -0.73
